{"sequences": {"note": "The chains behind the UniProt entries cited, without tags or fusion partners. Where a name states a change or a piece, a line headed by the entry shows the natural chain unless it says otherwise.", "UniProt Q5U5X0": "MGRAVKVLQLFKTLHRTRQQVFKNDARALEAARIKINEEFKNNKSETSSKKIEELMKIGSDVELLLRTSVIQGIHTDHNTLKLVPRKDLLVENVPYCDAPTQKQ", "UniProt O60732": "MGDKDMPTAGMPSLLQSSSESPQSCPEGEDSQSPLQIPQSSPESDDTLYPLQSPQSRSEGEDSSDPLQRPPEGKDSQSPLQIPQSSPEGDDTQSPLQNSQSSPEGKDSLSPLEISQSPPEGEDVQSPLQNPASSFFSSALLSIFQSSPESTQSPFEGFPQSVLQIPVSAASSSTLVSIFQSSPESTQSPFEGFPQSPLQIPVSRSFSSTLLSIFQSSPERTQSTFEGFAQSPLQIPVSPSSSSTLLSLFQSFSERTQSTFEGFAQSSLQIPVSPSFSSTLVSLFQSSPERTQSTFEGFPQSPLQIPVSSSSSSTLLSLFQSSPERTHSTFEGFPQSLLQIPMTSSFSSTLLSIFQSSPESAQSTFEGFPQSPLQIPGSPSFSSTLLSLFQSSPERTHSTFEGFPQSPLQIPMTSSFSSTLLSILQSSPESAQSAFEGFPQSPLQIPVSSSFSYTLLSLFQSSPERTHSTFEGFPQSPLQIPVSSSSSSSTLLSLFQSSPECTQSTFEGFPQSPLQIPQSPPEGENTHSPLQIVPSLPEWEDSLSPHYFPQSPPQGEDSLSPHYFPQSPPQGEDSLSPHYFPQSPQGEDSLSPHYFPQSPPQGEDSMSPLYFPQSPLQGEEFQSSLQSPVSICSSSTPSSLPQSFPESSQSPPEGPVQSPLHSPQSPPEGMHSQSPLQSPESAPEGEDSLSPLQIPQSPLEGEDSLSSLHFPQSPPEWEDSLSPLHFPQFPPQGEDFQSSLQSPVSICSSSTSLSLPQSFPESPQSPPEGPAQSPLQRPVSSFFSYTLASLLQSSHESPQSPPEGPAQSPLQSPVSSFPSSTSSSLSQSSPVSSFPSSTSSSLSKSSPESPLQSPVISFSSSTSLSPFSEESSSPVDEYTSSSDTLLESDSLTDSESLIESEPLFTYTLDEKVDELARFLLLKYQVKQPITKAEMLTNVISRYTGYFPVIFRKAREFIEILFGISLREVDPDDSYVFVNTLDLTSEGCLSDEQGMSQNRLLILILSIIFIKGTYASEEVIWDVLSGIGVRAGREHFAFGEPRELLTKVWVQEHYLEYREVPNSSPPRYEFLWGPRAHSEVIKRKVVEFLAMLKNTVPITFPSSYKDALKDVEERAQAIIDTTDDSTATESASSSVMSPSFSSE", "UniProt Q9NTJ4": "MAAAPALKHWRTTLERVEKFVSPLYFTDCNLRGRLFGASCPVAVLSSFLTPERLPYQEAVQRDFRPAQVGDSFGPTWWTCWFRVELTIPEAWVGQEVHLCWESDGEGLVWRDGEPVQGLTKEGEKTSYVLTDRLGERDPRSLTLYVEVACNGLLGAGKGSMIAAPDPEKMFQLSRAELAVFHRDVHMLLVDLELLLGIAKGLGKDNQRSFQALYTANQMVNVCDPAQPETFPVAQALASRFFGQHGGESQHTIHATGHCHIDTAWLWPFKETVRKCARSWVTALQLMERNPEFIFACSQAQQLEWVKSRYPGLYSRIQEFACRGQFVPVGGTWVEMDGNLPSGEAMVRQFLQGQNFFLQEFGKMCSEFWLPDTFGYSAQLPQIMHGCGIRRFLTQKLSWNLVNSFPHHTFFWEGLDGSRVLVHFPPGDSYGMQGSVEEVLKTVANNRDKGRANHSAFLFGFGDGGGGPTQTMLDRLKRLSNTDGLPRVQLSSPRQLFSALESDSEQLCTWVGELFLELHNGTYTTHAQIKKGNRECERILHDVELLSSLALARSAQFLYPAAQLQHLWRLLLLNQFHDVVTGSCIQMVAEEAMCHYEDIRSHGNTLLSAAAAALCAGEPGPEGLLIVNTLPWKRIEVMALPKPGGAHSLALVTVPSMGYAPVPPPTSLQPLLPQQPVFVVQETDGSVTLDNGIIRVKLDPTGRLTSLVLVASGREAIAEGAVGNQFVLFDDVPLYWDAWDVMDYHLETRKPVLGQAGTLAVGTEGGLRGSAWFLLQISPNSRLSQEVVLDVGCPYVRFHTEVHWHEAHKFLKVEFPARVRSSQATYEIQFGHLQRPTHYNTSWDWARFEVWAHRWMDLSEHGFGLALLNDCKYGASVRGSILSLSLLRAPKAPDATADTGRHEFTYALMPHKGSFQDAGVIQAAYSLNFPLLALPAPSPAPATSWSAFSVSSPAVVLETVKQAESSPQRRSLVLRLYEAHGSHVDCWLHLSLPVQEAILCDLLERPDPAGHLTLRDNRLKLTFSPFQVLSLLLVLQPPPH", "UniProt Q9Y4Z0": "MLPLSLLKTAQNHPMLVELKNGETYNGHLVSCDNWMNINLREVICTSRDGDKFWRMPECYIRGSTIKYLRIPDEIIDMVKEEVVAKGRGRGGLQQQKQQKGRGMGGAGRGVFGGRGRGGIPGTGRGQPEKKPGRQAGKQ", "UniProt Q9UK45": "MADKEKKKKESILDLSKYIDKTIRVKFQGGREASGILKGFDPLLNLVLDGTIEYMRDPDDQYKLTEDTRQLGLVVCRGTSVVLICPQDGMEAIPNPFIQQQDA", "UniProt O95777": "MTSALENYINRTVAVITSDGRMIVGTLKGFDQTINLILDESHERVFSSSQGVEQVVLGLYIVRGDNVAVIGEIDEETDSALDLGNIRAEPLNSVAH", "UniProt P45985": "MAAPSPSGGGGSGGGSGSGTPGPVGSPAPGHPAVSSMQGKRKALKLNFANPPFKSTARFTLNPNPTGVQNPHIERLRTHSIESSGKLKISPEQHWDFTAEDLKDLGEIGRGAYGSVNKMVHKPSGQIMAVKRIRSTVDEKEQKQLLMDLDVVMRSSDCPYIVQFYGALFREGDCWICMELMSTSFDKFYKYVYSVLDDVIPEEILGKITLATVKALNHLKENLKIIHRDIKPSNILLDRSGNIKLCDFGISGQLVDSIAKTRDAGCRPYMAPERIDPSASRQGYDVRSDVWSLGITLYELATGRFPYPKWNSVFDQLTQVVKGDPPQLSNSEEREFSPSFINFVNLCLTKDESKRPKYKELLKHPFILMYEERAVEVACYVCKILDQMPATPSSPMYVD", "UniProt Q9NQ48": "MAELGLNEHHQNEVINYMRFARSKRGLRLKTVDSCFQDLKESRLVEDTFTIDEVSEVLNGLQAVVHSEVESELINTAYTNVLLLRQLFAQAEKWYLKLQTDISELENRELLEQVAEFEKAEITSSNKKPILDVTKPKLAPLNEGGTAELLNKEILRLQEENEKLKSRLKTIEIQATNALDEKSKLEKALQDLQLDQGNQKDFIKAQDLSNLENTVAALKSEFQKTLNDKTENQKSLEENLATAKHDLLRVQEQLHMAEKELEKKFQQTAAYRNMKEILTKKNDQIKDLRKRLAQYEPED", "UniProt Q96S90": "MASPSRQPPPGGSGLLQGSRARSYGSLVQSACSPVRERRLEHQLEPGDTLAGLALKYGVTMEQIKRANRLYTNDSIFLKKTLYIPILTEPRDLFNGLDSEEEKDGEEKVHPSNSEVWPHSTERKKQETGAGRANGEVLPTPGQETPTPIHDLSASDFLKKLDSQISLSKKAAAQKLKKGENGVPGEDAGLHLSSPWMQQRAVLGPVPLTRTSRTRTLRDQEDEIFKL", "UniProt O00754": "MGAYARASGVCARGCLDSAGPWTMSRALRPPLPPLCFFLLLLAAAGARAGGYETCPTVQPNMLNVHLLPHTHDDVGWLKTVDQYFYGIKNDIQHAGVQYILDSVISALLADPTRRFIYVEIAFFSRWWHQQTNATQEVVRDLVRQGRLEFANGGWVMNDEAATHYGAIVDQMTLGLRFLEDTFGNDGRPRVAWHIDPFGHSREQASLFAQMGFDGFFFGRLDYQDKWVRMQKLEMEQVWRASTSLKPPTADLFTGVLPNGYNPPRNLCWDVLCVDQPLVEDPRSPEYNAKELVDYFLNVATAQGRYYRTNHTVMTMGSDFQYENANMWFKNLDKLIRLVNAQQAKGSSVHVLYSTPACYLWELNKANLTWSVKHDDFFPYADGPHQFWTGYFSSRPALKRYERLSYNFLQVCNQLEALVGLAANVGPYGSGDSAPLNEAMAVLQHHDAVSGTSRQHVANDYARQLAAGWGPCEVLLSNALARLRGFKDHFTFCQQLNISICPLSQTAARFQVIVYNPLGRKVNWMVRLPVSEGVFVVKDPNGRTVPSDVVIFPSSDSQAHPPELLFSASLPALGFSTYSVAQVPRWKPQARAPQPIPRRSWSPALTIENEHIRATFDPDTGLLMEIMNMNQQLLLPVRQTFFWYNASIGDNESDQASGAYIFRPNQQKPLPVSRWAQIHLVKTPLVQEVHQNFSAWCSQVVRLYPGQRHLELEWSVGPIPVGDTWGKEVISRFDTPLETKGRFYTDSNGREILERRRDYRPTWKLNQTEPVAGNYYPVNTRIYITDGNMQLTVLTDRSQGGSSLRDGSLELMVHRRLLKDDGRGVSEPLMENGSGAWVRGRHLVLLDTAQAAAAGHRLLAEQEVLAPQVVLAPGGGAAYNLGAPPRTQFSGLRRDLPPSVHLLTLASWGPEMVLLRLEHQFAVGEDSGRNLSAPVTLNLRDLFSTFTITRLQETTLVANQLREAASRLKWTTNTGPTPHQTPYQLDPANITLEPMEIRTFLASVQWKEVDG", "UniProt P02788": "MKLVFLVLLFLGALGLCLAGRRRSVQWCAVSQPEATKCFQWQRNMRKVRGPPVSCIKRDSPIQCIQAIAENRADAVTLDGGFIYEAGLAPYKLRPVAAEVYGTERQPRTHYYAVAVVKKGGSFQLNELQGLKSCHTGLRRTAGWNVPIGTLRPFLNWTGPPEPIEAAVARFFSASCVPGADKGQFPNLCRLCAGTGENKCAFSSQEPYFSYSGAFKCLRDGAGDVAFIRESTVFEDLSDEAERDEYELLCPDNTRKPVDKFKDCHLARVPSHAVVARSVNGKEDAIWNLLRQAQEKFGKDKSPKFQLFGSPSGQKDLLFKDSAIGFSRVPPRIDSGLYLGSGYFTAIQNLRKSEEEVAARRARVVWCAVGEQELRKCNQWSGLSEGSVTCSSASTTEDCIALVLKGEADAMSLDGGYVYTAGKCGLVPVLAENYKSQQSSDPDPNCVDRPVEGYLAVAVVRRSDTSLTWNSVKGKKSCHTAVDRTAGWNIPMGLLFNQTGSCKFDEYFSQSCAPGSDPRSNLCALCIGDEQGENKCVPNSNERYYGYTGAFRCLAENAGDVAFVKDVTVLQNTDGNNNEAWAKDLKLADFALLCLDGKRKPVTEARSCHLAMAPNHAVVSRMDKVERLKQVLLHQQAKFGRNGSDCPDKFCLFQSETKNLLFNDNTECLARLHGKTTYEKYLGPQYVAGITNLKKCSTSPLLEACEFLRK", "UniProt O00462": "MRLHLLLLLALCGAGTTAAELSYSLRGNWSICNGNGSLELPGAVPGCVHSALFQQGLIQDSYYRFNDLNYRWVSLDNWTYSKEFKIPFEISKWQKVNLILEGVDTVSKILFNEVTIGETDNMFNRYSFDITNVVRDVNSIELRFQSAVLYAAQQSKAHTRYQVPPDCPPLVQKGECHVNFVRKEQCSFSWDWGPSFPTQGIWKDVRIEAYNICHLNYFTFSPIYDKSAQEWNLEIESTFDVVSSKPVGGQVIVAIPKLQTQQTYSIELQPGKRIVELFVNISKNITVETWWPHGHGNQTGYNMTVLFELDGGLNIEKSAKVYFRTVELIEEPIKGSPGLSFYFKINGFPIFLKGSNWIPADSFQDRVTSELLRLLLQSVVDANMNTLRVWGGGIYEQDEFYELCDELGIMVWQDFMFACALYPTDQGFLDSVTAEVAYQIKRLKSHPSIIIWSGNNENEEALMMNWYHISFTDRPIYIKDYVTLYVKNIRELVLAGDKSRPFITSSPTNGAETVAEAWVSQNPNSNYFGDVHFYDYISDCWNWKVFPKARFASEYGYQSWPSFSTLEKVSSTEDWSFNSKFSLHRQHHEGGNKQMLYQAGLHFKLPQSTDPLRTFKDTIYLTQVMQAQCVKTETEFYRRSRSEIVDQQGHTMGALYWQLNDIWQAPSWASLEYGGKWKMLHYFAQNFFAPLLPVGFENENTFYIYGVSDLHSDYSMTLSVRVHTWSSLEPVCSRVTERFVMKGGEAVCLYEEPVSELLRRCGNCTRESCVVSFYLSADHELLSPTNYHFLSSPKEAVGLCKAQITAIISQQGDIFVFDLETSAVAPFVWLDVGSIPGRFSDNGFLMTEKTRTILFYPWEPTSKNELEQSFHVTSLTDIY", "UniProt O43325": "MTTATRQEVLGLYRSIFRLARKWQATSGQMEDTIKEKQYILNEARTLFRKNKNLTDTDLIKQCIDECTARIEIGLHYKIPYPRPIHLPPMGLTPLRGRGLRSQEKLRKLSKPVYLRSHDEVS", "UniProt Q9NX47": "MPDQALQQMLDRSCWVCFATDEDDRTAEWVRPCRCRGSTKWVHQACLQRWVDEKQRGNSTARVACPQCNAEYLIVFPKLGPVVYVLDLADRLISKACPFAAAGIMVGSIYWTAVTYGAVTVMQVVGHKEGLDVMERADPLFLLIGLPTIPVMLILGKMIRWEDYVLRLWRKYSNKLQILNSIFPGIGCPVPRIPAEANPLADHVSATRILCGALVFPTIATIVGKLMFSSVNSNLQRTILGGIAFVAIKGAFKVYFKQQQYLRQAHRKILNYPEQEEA"}, "source": "the supplement of paper PMC10849652", "note": "The list shows a part of the results.", "data": [{"compound": "CN1C2=C(C3=C1C(=O)N(N=C3)CC4=CC(=CC=C4)N)SC(=C2)S(=O)C", "assay": "log2 fold change, soluble protein after heating vs DMSO (PISA); higher = thermal stabilisation; K562 cells, 10 uM, 30 min; active = over 0.2 and 3.5 SD of the protein, either way, in both replicates (recomputed)", "procedure,_shortened": "(§1)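 K562 cells at 2×10^6 cells/mL were given 10 μM compound for 30 min. Aliquots then went through 3 min of heating across 48°C-58°C, were pooled, and were extracted in PBS with 0.5% NP-40 at 4°C, and the supernatant after 21,000xg for 90 min was quantified by TMTpro 16plex LC-MS/MS with channel sums equalised. Thermal stability relative to control samples, from duplicates, is given as log2 fold change.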", "values": [{"target": "MAGT1 (UniProt Q9H0U3)", "log2 fold change": "inactive: 0.042"}, {"target": "LRRFIP2 (UniProt Q9Y608)", "log2 fold change": "inactive: -0.018"}, {"target": "MAN2A1 (UniProt Q16706)", "log2 fold change": "inactive: -0.04"}, {"target": "MAPRE2 (UniProt Q15555)", "log2 fold change": "inactive: 0.13"}, {"target": "MACROD1 (UniProt Q9BQ69)", "log2 fold change": "inactive: -0.031"}, {"target": "LYRM7 (UniProt Q5U5X0)", "log2 fold change": "inactive: -0.031"}, {"target": "MAGEC1 (UniProt O60732)", "log2 fold change": "inactive: 0.162"}, {"target": "MAP1S (UniProt Q66K74)", "log2 fold change": "inactive: -0.033"}, {"target": "MAN2C1 isoform 4 (UniProt Q9NTJ4)", "log2 fold change": "inactive: 0.035"}, {"target": "LSM4 (UniProt Q9Y4Z0)", "log2 fold change": "inactive: -0.036"}, {"target": "LSM7 (UniProt Q9UK45)", "log2 fold change": "inactive: -0.047"}, {"target": "LSM8 (UniProt O95777)", "log2 fold change": "inactive: -0.049"}, {"target": "MAP2K4 isoform 2 (UniProt P45985)", "log2 fold change": "inactive: -0.052"}, {"target": "MAN2A2 (UniProt P49641)", "log2 fold change": "inactive: 0.035"}, {"target": "LZTFL1 (UniProt Q9NQ48)", "log2 fold change": "inactive: -0.083"}, {"target": "MACF1 (UniProt H3BQK9)", "log2 fold change": "inactive: -0.106"}, {"target": "LYSMD1 (UniProt Q96S90)", "log2 fold change": "inactive: 0.036"}, {"target": "MAN2B1 (UniProt O00754)", "log2 fold change": "inactive: -0.03"}, {"target": "MAP1B (UniProt P46821)", "log2 fold change": "inactive: 0.013"}, {"target": "MAPRE1 (UniProt Q15691)", "log2 fold change": "inactive: -0.037"}, {"target": "MACF1 (UniProt Q9UPN3)", "log2 fold change": "inactive: 0.115"}, {"target": "LTF (UniProt P02788)", "log2 fold change": "inactive: 0.259"}, {"target": "MAGEB2 (UniProt O15479)", "log2 fold change": "inactive: 0.435"}, {"target": "MANBA (UniProt O00462)", "log2 fold change": "inactive: -0.048"}, {"target": "MANF (UniProt P55145)", "log2 fold change": "inactive: -0.056"}, {"target": "LYRM1 (UniProt O43325)", "log2 fold change": "inactive: -0.018"}, {"target": "MAP7 isoform 7 (UniProt Q14244)", "log2 fold change": "inactive: 0.314"}, {"target": "MARCHF5 (UniProt Q9NX47)", "log2 fold change": "inactive: -0.082"}, {"target": "LTA4H (UniProt P09960)", "log2 fold change": "inactive: -0.086"}]}, {"compound": "CN1CCC(CNc2ccc3ncc(-c4cccc(OC(F)(F)F)c4)n3n2)CC1", "assay": "log2 fold change, soluble protein after heating vs DMSO (PISA); higher = thermal stabilisation; K562 cells, 10 uM, 30 min; active = over 0.2 and 3.5 SD of the protein, either way, in both replicates (recomputed)", "procedure,_shortened": "as §1", "values": [{"target": "MAGT1 (UniProt Q9H0U3)", "log2 fold change": "inactive: 0.131"}, {"target": "LRRFIP2 (UniProt Q9Y608)", "log2 fold change": "inactive: -0.019"}, {"target": "MAN2A1 (UniProt Q16706)", "log2 fold change": "inactive: 0.057"}, {"target": "MAPRE2 (UniProt Q15555)", "log2 fold change": "inactive: -0.115"}, {"target": "MACROD1 (UniProt Q9BQ69)", "log2 fold change": "inactive: -0.113"}, {"target": "LYRM7 (UniProt Q5U5X0)", "log2 fold change": "inactive: -0.007"}, {"target": "MAGEC1 (UniProt O60732)", "log2 fold change": "inactive: 0.023"}, {"target": "MAP1S (UniProt Q66K74)", "log2 fold change": "inactive: -0.021"}, {"target": "MAN2C1 isoform 4 (UniProt Q9NTJ4)", "log2 fold change": "inactive: -0.061"}, {"target": "LSM4 (UniProt Q9Y4Z0)", "log2 fold change": "inactive: 0.129"}, {"target": "LSM7 (UniProt Q9UK45)", "log2 fold change": "inactive: -0.001"}, {"target": "LSM8 (UniProt O95777)", "log2 fold change": "inactive: 0.02"}, {"target": "MAP2K4 isoform 2 (UniProt P45985)", "log2 fold change": "inactive: -0.103"}, {"target": "MAN2A2 (UniProt P49641)", "log2 fold change": "inactive: 0.052"}, {"target": "LZTFL1 (UniProt Q9NQ48)", "log2 fold change": "inactive: 0.043"}, {"target": "MACF1 (UniProt H3BQK9)", "log2 fold change": "inactive: 0.107"}, {"target": "LYSMD1 (UniProt Q96S90)", "log2 fold change": "inactive: -0.051"}, {"target": "MAN2B1 (UniProt O00754)", "log2 fold change": "inactive: -0.01"}, {"target": "MAP1B (UniProt P46821)", "log2 fold change": "inactive: 0.089"}, {"target": "MAPRE1 (UniProt Q15691)", "log2 fold change": "inactive: -0.056"}, {"target": "MACF1 (UniProt Q9UPN3)", "log2 fold change": "inactive: 0.021"}, {"target": "LTF (UniProt P02788)", "log2 fold change": "inactive: -0.025"}, {"target": "MAGEB2 (UniProt O15479)", "log2 fold change": "inactive: 0.123"}, {"target": "MANBA (UniProt O00462)", "log2 fold change": "inactive: -0.138"}, {"target": "MANF (UniProt P55145)", "log2 fold change": "inactive: -0.007"}, {"target": "LYRM1 (UniProt O43325)", "log2 fold change": "inactive: 0.259"}, {"target": "MAP7 isoform 7 (UniProt Q14244)", "log2 fold change": "inactive: 0.259"}, {"target": "MARCHF5 (UniProt Q9NX47)", "log2 fold change": "inactive: 0.11"}, {"target": "LTA4H (UniProt P09960)", "log2 fold change": "inactive: -0.02"}]}]}
